Source: PubChem BioAssay AID1347075 (National Center for Advancing Translational Sciences (NCATS), 2019)
The whole screen tested about 400,000 compounds, of which about 5,500 (1.4%) were called active. Inconclusive results, whose numbers are uncertain, are shown with a selection of clear calls. Calls follow the shape of the dose curve; as a rule, active = well fitted cell-killing curve with a large enough effect; inconclusive = small, poorly fitted or top-dose-only effect, or effect the other way; inactive = flat fitted curve, though single readings scatter. Where the call is inconclusive, the potency comes from a doubtful curve fit.

assay: qHTS assay for MDR1-selective chemotherapeutics: Primary screen using the parental adenocarcinoma cell KB-3-1; conditions: KB-3-1 viability, CellTiter-Glo ATP luminescence, 72 h; activity change, negative = cytotoxic: at 46.1 µM (top of the series); also: nearly all actives have a fitted effect of over 60% in size
In short: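 Cytotoxicity measured as CellTiter-Glo luminescence after 72 h at 37 C. Compound titrations were pinned onto drug-naive KB-3-1 parental adenocarcinoma cells grown in DMEM with 10% FBS, and normalized data fitted to concentration-response curves.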
% is scaled to controls: 0 for no effect and ±100 for the full control effect; potency is read from the fitted curve at half-maximal effect.

**Q.** With `O=C(c1ccc(C(F)(F)F)cc1)C1CCCN(C(=O)CN2C(=O)CSC2=O)C1` (stereo not drawn) as the compound, how does the Potency read?
**A.** inconclusive: 5.17 µM [cytotoxic, full curve]

**Q.** For `CCN(CC)C(=S)SCC(=O)c1c(C)[nH]c2ccccc12`, which Potency is on record?
**A.** inconclusive: 13 µM [cytotoxic, partial curve, poor fit]

**Q.** For `CCc1cc(=O)oc2cc(OC(C)C(=O)NCC(O)c3ccccc3)c(Cl)cc12` (stereo not drawn), which Potency is on record?
**A.** inconclusive: 18.4 µM [cytotoxic, single point]

**Q.** For `Cc1ccc(S(=O)(=O)Oc2ccccc2-c2ccccc2)cc1`, which Potency is on record?
**A.** inconclusive: 29.1 µM [cytotoxic, single point]

**Q.** With `O=C(c1ccc2c(c1)[nH]c(=S)n1c3ccccc3nc21)N1CCN(c2cccc(Cl)c2)CC1` as the compound, how does the Potency read?
**A.** inconclusive: 29.1 µM [cytotoxic, single point]

**Q.** With `CC(C)C[C@H](NC(=O)c1[nH]cnc1C(=O)N[C@@H](Cc1ccccc1)C(=O)OCc1ccccc1)C(=O)OC(C)(C)C` as the compound, how does the “activity change, negative = cytotoxic” value read?
**A.** inactive: -9.01%

**Q.** With `CN(C)S(=O)(=O)c1ccc(C(=O)OCC(=O)Nc2ccccc2OC(F)F)cc1` as the compound, how does the activity change, negative = cytotoxic read?
**A.** inconclusive: 2.18%

**Q.** For `CCOC(=O)c1cc2c(=O)n3ccccc3nc2n(C(C)C)c1=NC(=O)c1ccco1`, which “activity change, negative = cytotoxic” value is on record?
**A.** inactive: 3.75%

**Q.** For `O=C(CSc1ccc2ccccc2c1Br)Nc1cccc(S(=O)(=O)NC2=NCCCCC2)c1`, which “activity change, negative = cytotoxic” value is on record?
**A.** inactive: -3.36%

**Q.** Which Potency does the source give for `CC(=O)OCC=C1CCC2C3CCC4=CC(=O)CCC4(C)C3C(O)CC12C` (stereo not drawn) here?
**A.** inconclusive: 29.1 µM [cytotoxic, single point]

**Q.** For `O=S(=O)(N/N=C/c1cn(Cc2ccccc2)c2ccccc12)c1ccccc1`, which Potency is on record?
**A.** inconclusive: 10.3 µM [cytotoxic, partial curve]

**Q.** With `Cc1cc(-c2n[nH]c(=S)n2/N=C/c2ccc(Br)s2)n[nH]1` as the compound, how does the Potency read?
**A.** inconclusive: 0.651 µM [rising, single point]

**Q.** For `Cc1cccc(CN2Cc3cccc4c3[C@H](C=CC4)CC2=S)c1`, which “activity change, negative = cytotoxic” value is on record?
**A.** inactive: -2.25%

**Q.** With `COc1cccc(NC(=O)CN(C)C(=O)C(Sc2ccccc2)c2ccccc2)c1` (stereo not drawn) as the compound, how does the Potency read?
**A.** inconclusive: 29.1 µM [cytotoxic, single point]

**Q.** For `CCc1noc(C)c1C(=O)Nc1ccc(-c2nnc3n2CCCCC3)cc1`, which Potency is on record?
**A.** inconclusive: 18.4 µM [rising, partial curve]

**Q.** With `O=[N+]([O-])c1cc([N+](=O)[O-])c2cc3ccccc3nc2c1` as the compound, how does the Potency read?
**A.** active: 3.66 µM

**Q.** For `O=C(Nc1cn(-c2ccccc2)nc1-c1ccc(F)cc1)c1ccccc1`, which “activity change, negative = cytotoxic” value is on record?
**A.** inactive: 0.469%

**Q.** With `CC(=O)NC(c1ccco1)c1ccc2cccnc2c1O` (stereo not drawn) as the compound, how does the Potency read?
**A.** active: 8.2 µM

**Q.** Which Potency does the source give for `Cc1ccc(NC(=O)N2CCC(NC(=O)c3cccc(C)c3)CC2)cc1` here?
**A.** inconclusive: 25.9 µM [rising, partial curve, poor fit]

**Q.** Which Potency does the source give for `CCCC(=O)Nc1ccc(-c2csc(NNC(C)=O)n2)cc1` here?
**A.** inconclusive: 8.2 µM [rising, partial curve]

**Q.** With `Cc1ccn2cc(-c3cccc(S(=O)(=O)N4CC(C)OC(C)C4)c3)nc2c1` (stereo not drawn) as the compound, how does the Potency read?
**A.** inconclusive: 25.9 µM [cytotoxic, single point]

**Q.** For `OC(c1cccc(Cl)c1)c1ncc(-c2ccc3ccccc3c2)[nH]1` (stereo not drawn), which “activity change, negative = cytotoxic” value is on record?
**A.** inactive: -0.217%

**Q.** Which Potency does the source give for `O=Cc1cc2ccccc2nc1SCc1ccc(Cl)cc1` here?
**A.** active: 6.51 µM

**Q.** Which “activity change, negative = cytotoxic” value does the source give for `COc1ccc(N2CCN(C(=O)CC(C)S(=O)(=O)c3ccc4c(c3)NC(=O)CO4)CC2)cc1` (stereo not drawn) here?
**A.** inactive: -16.9%

**Q.** Which “activity change, negative = cytotoxic” value does the source give for `C=CCN(CC=C)S(=O)(=O)c1ccc(NC(=S)NC(=O)C2CC2)cc1` here?
**A.** inactive: -16.2%

**Q.** Which “activity change, negative = cytotoxic” value does the source give for `C/C(CCc1ccc2c(c1)OCO2)=N\N=C1\NC(=O)CC(C(=O)Nc2ccc(C(=O)O)cc2)S1` (stereo not drawn) here?
**A.** inactive: -2.86%

**Q.** Which Potency does the source give for `Cc1ccc(S(=O)(=O)N2CCCC2C(=O)Nc2nc3c(s2)CCCC3)cc1` (stereo not drawn) here?
**A.** inconclusive: 25.9 µM [cytotoxic, single point]

**Q.** Which Potency does the source give for `O=C(NCCc1ccc(C(F)(F)F)cc1)C1CC(=O)N(c2ccc3c(c2)OCCO3)C1` (stereo not drawn) here?
**A.** inconclusive: 29.1 µM [cytotoxic, single point]

**Q.** Which Potency does the source give for `COc1ccccc1CNCC(O)Cn1c2ccccc2c2ccccc21` (stereo not drawn) here?
**A.** inconclusive: 29.1 µM [cytotoxic, single point]

**Q.** With `O=c1c2cccc3c2c(nn1CN1CCOCC1)-c1ccccc1-3` as the compound, how does the Potency read?
**A.** active: 4.11 µM

**Q.** With `COC(=O)[C@@]1(Cc2ccc(F)cc2)[C@H]2c3cc(C(=O)N(C)C)n(Cc4cc(F)cc5c4OCOC5)c3C[C@H]2CN1C(=O)c1ccccc1` as the compound, how does the Potency read?
**A.** inconclusive: 29.1 µM [cytotoxic, single point]

**Q.** With `O=C(c1cc(S(=O)(=O)N2CCCC2)c(Cl)cc1Cl)N1CCCC1` as the compound, how does the activity change, negative = cytotoxic read?
**A.** inconclusive: -1.74%

**Q.** With `COC(=O)c1ccc(CSc2nc3ccccc3c(=O)n2C)o1` as the compound, how does the activity change, negative = cytotoxic read?
**A.** inconclusive: -14%
